Assay results published in PubChem BioAssay AID493014 (National Center for Advancing Translational Sciences (NCATS), 2011).
Among all 340,000 compounds or so, about 170 (0.05%) were called active. Inconclusive means that the source gave no clear call. Such entries were picked first, then a sample of the others. Calls come from the whole dose curve; as a rule, active = well fitted inhibition curve with a large enough effect in the signal ratio, with a control signal flat (not every such curve was filed as active); inconclusive = small, poorly fitted or top-dose-only effect, or effect the other way, or a change in a side signal; inactive = flat fitted curve, though single readings scatter; the % refers to the signal ratio. Potencies of inconclusive entries are doubtful fits and often do not repeat.

Assay: qHTS Assay to Find Inhibitors of Chronic Active B-Cell Receptor Signaling;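 for activity change, negative = inhibition: plate controls were basal doxycycline-induced cells for no effect and cells given 10 µM MG132 for full effect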
Details: ABC-DLBCL IkBa-CBG/CBR reporter, luminescence ratio (green luciferase fused to IkBa over red control in TMD8 lymphoma cells), 4 h; activity change, negative = inhibition: at 46.1 µM (top of the series) unless noted
Procedure, shortened: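 TMD8 human ABC-DLBCL cells with doxycycline-inducible IκBα–green luciferase fusion and unfused red luciferase, in 0.5% FBS medium; compounds up to 46 uM, 4 h at 37C. Green/red luminescence ratio, filter-overlap corrected, fitted to concentration-response curves.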
Potency is the fitted concentration of half-maximal effect.

Row | Structure (SMILES) | Potency | activity change, negative = inhibition
1 | Oc1ccccc1Nc1ncnc2c1oc1ccccc12 | inconclusive: 20 µM [falling, partial curve] | 
2 | O=C(O)CCCCCNC(=O)c1ccc(C(=O)NCCCCCC(=O)O)cc1 |  | inconclusive: -0.562%
3 | COc1ccc(/C=N/Nc2nc(-c3ccc(C)cc3)c(C#N)c(=O)[nH]2)cc1 |  | inconclusive: 12.3%
4 | CC1CCCCN1S(=O)(=O)c1ccc(N(C(=O)c2cnccn2)C(C(=O)NC2CCCC2)c2cccs2)cc1 (stereo not drawn) |  | inactive: 0.714%
5 | Cc1c(NC(=O)CSc2nnc(-c3ccncc3)o2)c(=O)n(-c2ccccc2)n1C |  | inconclusive: 8.85%
6 | COc1ccc(CN(CC(=O)NC2CCCC2)C(=O)c2ccc(-c3ccccc3)[nH]2)cc1 |  | inactive: 6.72%
7 | COc1cccc(OC)c1OCCCNC1CCCC1 |  | inactive: -0.627%
8 | Cc1cccc(NC(=O)c2cnc3sccn3c2=O)c1 |  | inconclusive: 14.3%
9 | CC(C)(C)c1ccc(-c2nnc(SCC(=O)Nc3sc4c(c3C#N)CCCC4)o2)cc1 |  | inconclusive: 15.3%
10 | CCOC(=O)C1CCN(S(=O)(=O)c2cn(C)cn2)CC1 |  | inactive: -0.333%
11 | CCOC(=O)/C(C#N)=C/c1cn(CCOc2ccc(OC)cc2)c2ccccc12 |  | inconclusive: 1.38%
12 | O=C(Cc1ccc(Cl)cc1)NCC(=O)N1CCCCC1 |  | inactive: 8.28%
13 | Cc1ccc(C(=O)N2CC(=O)Nc3ccc(F)cc3C2c2ccccc2)cc1 (stereo not drawn) |  | inconclusive: -10.8%
14 | COc1ccc(CCN(C)S(=O)(=O)c2cn(C)c(=O)n(C)c2=O)cc1OC |  | inactive: -2.47%
15 | COc1ccc(Cc2c(C)nc(N)nc2Cl)cc1 |  | inactive: -23.8%
16 | O=C(CSc1nnc(-c2ccccc2F)n1C1CCCCC1)N1CCCC1 |  | inactive: 0.412%
17 | CCOc1ccc(Oc2ccc(C(F)(F)F)cc2N)cc1 |  | inconclusive: 14.5%
18 | Cc1cc(=O)n(-c2ccc(C(=O)O)cc2)[nH]1 | inconclusive: 5.62 µM [rising, partial curve] | 
19 | COc1ccc(NC(=O)Nc2ccc(C(C)C)cc2)cc1 | inconclusive: 10 µM [falling, partial curve] | 
20 | C/C(=N\NC(=O)c1ccc([N+](=O)[O-])cc1)c1c(O)cc(C)oc1=O |  | inconclusive: 7.07%
21 | Cc1cc(C)c2cc(CN(Cc3ccco3)C(=O)NCc3ccccc3)c(=O)[nH]c2c1 | inconclusive: 25.1 µM [falling, single point] | 

Row | Structure (SMILES) | Potency | activity change, negative = inhibition
22 | Cc1cc(NC(=O)c2ccc(Cl)cc2)cc(C)c1OCC(=O)N1CCOCC1 |  | inactive: -0.659%
23 | CN(C(=O)CSc1nnc(NC2CCCCC2)s1)C1CCS(=O)(=O)C1 (stereo not drawn) |  | inconclusive: 5.6%
24 | Cc1ccc(N2C(=O)c3ccc(N)cc3C2=O)cc1C | inconclusive: 12.6 µM [falling, partial curve] | 
25 | COCc1ccc(CN2CCc3c([nH]c4ccccc34)C2C(C)(C)C)o1 (stereo not drawn) |  | inactive: -3.56%
26 | COc1ccc(C(=O)Nc2ccc3ccccc3c2)cc1 |  | inactive: -5.53%
27 | O=C(O)c1cc(-c2ccccc2)nc2nc(N3CCCCC3)sc12 |  | inconclusive: 12.2%
28 | CC(OC(=O)CCc1ccccc1)C(=O)Nc1ccc(Cl)cn1 (stereo not drawn) |  | inactive: 12.8%
29 | COc1ccc(C(=O)c2cc([N+](=O)[O-])ccc2N2CCOCC2)cc1 | inconclusive: 1.3 µM [falling, full curve] | 
30 | Nc1c(-c2ccc(Cl)cc2)cnc2c(-c3ccc(F)cc3)cnn12 |  | inactive: 0.292%
31 | COc1cc2cc(CN(CCCO)S(=O)(=O)c3ccccc3Cl)c(=O)[nH]c2cc1OC |  | inactive: -0.0134%
32 | OCCCNc1nnc(-c2ccccc2)c2ccccc12 |  | inconclusive: -7.08%
33 | O=C(NC1CC1)c1ccc2c(c1)N(Cc1ccc(Cl)cc1)CCS2 |  | inconclusive: 7.78%
34 | O=c1cc(-c2ccccc2)nc2nc(SCc3ccccc3)[nH]n12 | inconclusive: 4.61 µM [falling, full curve] | 
35 | CCOc1ccc(NC(C)C(=O)N/N=C/c2cccs2)cc1 (stereo not drawn) |  | inconclusive: 0.583%
36 | Cc1ccccc1-n1c(SCC(=O)c2c(N)n(C)c(=O)n(C)c2=O)nc2sc3c(c2c1=O)CCCC3 |  | inconclusive: 0.91%
37 | O=C(O)CSc1nnc(COc2cccc3ccccc23)o1 | inconclusive: 35.5 µM [falling, single point] | 
38 | CCOc1ccc(NC(=O)c2ccccc2SC)cc1 | inconclusive: 6.31 µM [falling, full curve] | 
39 | CCN(Cc1ccccc1)C(=O)CN1C(=O)COc2ccc(S(=O)(=O)N3CCCCCC3)cc21 |  | inactive: 10.3%
40 | CCCC(=O)Nc1nc(-c2ccc3c(c2)OCCO3)cs1 | inconclusive: 32.6 µM [falling, single point] | 
41 | COc1cccc(OC)c1C(=O)Nc1ccc2c(c1)n(C)c(=O)n2C |  | inconclusive: 4.66%
42 | COc1ccc(/C(N)=N/OC(=O)c2cccc([N+](=O)[O-])c2C)cc1 |  | inactive: 6.19%

Row | Structure (SMILES) | Potency | activity change, negative = inhibition
43 | COc1ccc(OC)c(NS(=O)(=O)c2ccc(N3CCCC3=O)cc2)c1 | inconclusive: 12.6 µM [falling, partial curve] | 
44 | Nc1ccccc1NC1CCCCC1 |  | inconclusive: 0.229%
45 | COc1ccc(NC(=O)C(c2ccc(OC)cc2)N(C)C(=O)CC2NC(=O)NC2=O)cc1 (stereo not drawn) |  | inactive: -1.7%
46 | Cc1cc(F)ccc1NC(=O)c1cc(S(=O)(=O)N2CCCC2)cn1C | inconclusive: 1.58 µM [rising, full curve, poor fit] | 
47 | CC(C(=O)N1CCc2ccccc21)N(C)CC(=O)Nc1ccc(F)cc1 (stereo not drawn) | inconclusive: 18.4 µM [falling, partial curve, poor fit] | 
48 | CC(CCc1ccccc1)OS(N)(=O)=O (stereo not drawn) | inconclusive: 12.6 µM [rising, single point] | 
49 | O=C(CSc1n[nH]c(-c2ccncc2)n1)c1ccccc1 | inconclusive: 18.4 µM [falling, partial curve] | 
50 | CCOC(=O)c1c(NC(=O)CCS(=O)(=O)c2ccccc2)sc2c1CCN(C(C)C)C2 | inconclusive: 35.5 µM [falling, single point] | 
51 | CCOC(=O)C1(Cc2ccc(Cl)cc2)CCN(C(=O)c2sc(C)nc2C)CC1 |  | inactive: -7.11%
52 | CCN1C(=O)/C(=C2/Sc3ccccc3N2CC)S/C1=N\c1ncn[nH]1 | inconclusive: 14.1 µM [falling, partial curve] | 
53 | Cc1cccc(-n2c(O)c(C=Nc3ccc(O)cc3)c3ccccc3c2=O)n1 |  | inconclusive: -0.774%
54 | COc1ccc(COc2cccc3ccc(C)nc23)cc1F |  | inconclusive: 0.385%
55 | CC1CCN(c2ncnc3c2cnn3Cc2ccc(Cl)cc2)CC1 |  | inconclusive: 11.2%
56 | COc1cc(/C=C2\SC(=S)NC2=O)ccc1OS(=O)(=O)c1ccccc1 |  | inconclusive: -9.99%
57 | O=C(CN1CCN(S(=O)(=O)c2ccc(F)cc2)CC1)Nc1ccnn1C1CCCC1 |  | inconclusive: 4.53%
58 | CC(C)N(Cc1nccn1C)C(=O)c1cc(COc2cccc(C(F)(F)F)c2)on1 |  | inactive: -2%
59 | S=C(NCc1ccncc1)Nc1ccc(Br)cc1Cl |  | inconclusive: 15.6%
60 | c1ccc(-c2nn3nnnc3c3ccccc23)cc1 |  | inconclusive: -0.966%
61 | CCOc1ccc(CN2CCN(C3CCSCC3)CC2CCO)cc1 (stereo not drawn) | inconclusive: 17.8 µM [falling, partial curve, poor fit] | 
62 | CCCCc1nc2cc(C(=O)N3CCCC(COC)C3)ccc2o1 (stereo not drawn) |  | inactive: 0.829%
63 | CCOC(=O)[C@H]1[C@H]2COc3ccc(Br)cc3[C@@H]2N2C(=O)c3ccc(F)cc3NC(=O)[C@@]12C |  | inconclusive: 5.88%

Row | Structure (SMILES) | Potency | activity change, negative = inhibition
64 | Cc1ccc(CNC(=O)CCn2cc(-c3ccc(F)cc3)nc2-c2ccncc2)cc1 | inconclusive: 14.6 µM [falling, partial curve] | 
65 | Cc1nnc(SCc2nnc(-c3ccccc3Br)o2)n1-c1ccccc1 |  | inconclusive: -2.01%
66 | CCCCN(CCCC)CCNC(=O)CSCc1ccc(C)cc1 |  | inactive: 5.47%
67 | CCCn1c(C)cc(C(=O)COC(=O)c2c(C)nn(-c3ccccc3)c2C)c1C | inconclusive: 16.4 µM [falling, single point] | 
68 | CC1(C)Cc2c(sc3c2c(=N)n(Cc2ccco2)c(=O)n3CC(=O)Nc2ccc(Cl)cc2)CO1 |  | inconclusive: -29.1%
69 | CCN(CC(=O)Nc1ccc(NC(C)=O)cc1)C(=O)CCCN1C(=O)c2ccccc2C1=O |  | inconclusive: 13.5%
70 | O=[N+]([O-])c1ccc(Sc2nnnn2-c2ccccc2)nc1 | inconclusive: 5.62 µM [cytotoxic, single point] | 
71 | Cc1nn(C)c(C(=O)NNC(=S)NC2CCCCC2)c1Br | inconclusive: 20 µM [falling, partial curve, poor fit] | 
72 | Cc1nnc(-c2cccc(Br)c2)c2cn(-c3ccccc3Cl)nc12 |  | inconclusive: 1.01%
73 | O=C(Nc1nc(-c2ccc(F)c(F)c2)cs1)c1ccc(OCC2CCCO2)cc1 (stereo not drawn) |  | inactive: 12.8%
74 | COc1ccc([C@@H]2[C@@H]3C(=O)N(C(C)(C)C)C(=O)[C@@H]3[C@]3(C)C(=O)N(c4cccc(Cl)c4)C(=O)N23)cc1 |  | inactive: -16.5%
75 | O=C1/C(=C/c2ccccc2)Oc2cc(OC(=O)N3CCOCC3)ccc21 |  | inactive: -0.848%
76 | COc1ccc(NS(=O)(=O)c2cccc3nonc23)c(OC)c1 |  | inactive: 0.0487%
77 | COc1ccccc1C(CC(=O)Nc1nccs1)c1ccco1 (stereo not drawn) |  | inactive: 3.05%
78 | CCOC(=O)c1c(C)nc2c(C#N)cnn2c1C |  | inactive: -10.5%
79 | CCOc1ccc(C2C(C#N)=C(N)Oc3cc(O)ccc32)cc1OCC (stereo not drawn) |  | inactive: -0.753%
80 | Cc1cc(C)n(CCc2nc(-c3cc4ccccc4o3)cs2)n1 |  | inactive: 7.42%
81 | O=C(NCc1ccco1)c1ccc(Cn2cc([N+](=O)[O-])cn2)o1 | inconclusive: 9.2 µM [falling, partial curve, poor fit] | 
82 | c1ccc(CN2CCN(c3nc(-c4ccccn4)nc4ccccc34)CC2)cc1 |  | inconclusive: -0.4%
83 | Cc1ccccc1OCC(=O)N1N=C(C(F)(F)F)CC1(O)C(C)(C)C (stereo not drawn) |  | inconclusive: 0.125%

In a second layout: four of the compounds above
COc1ccccc1C(CC(=O)Nc1nccs1)c1ccco1 (stereo not drawn)
  activity change, negative = inhibition: inactive: 3.05%
CCOC(=O)c1c(C)nc2c(C#N)cnn2c1C
  activity change, negative = inhibition: inactive: -10.5%
CCOc1ccc(C2C(C#N)=C(N)Oc3cc(O)ccc32)cc1OCC (stereo not drawn)
  activity change, negative = inhibition: inactive: -0.753%
Cc1cc(C)n(CCc2nc(-c3cc4ccccc4o3)cs2)n1
  activity change, negative = inhibition: inactive: 7.42%

An excerpt from above in order of molecular weight, smallest number first.
Row | Structure (SMILES) | Potency | activity change, negative = inhibition
71 | Cc1nn(C)c(C(=O)NNC(=S)NC2CCCCC2)c1Br | inconclusive: 20 µM [falling, partial curve, poor fit] | 
72 | Cc1nnc(-c2cccc(Br)c2)c2cn(-c3ccccc3Cl)nc12 |  | inconclusive: 1.01%
73 | O=C(Nc1nc(-c2ccc(F)c(F)c2)cs1)c1ccc(OCC2CCCO2)cc1 (stereo not drawn) |  | inactive: 12.8%
